## Primary screen of a compound library

T. brucei: 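Whole-parasite assay of Trypanosoma brucei over 72 hours; the read-out is not stated. Concentration: 30 µM. Higher reads as stronger inhibition (inferred: compounds with an IC50 in retests scored well above the rest). Values scatter widely below zero; nearly all retest evidence comes from the higher of the two concentrations used. About 64,000 compounds were tested under these conditions; 1.5% (about 940) showed 50% or more at least once.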
Toxoplasma: 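Assay of Toxoplasma gondii numbers, read through their beta-galactosidase reporter with a colour substrate. Tested at 10 µM. The record gives no direction; the compounds picked for IC50 retests had high values, so higher reads as fewer parasites. Size under these conditions: about 67,000 compounds, about 260 of them at 50% or above in at least one test.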

Each number is a percent effect as filed.
The controls that fix the scale are not given in the record; negative values are as filed.
This is an unselected part of the compounds tested.
A dash means the value is not listed here; it may have been measured.

| # | SMILES | T. brucei | Toxoplasma |
|---|---|---|---|
| 1 | `CC(C(=O)N(Cc1ccc(F)cc1)CC(F)(F)F)S(C)(=O)=O` (stereo not shown) | -1.152 | -6.679 |
| 2 | `NC(=O)C1CCN(CCc2ccc(NCc3ccsc3)cc2)CC1` | 5.2 | 3.363 |
| 3 | `CCNc1ccnc(-c2ccnc3c2ccn3C)n1` | 7.769 | -5.049 |
| 4 | `CC1(C)CN(Cc2nnc(-c3cccnc3)o2)CC[C@]1(C)O` | -24.19 | 6.479 |
| 5 | `Cc1nc(N)sc1C(=O)N1CCCC(COc2ccc(F)cc2)C1` (stereo not shown) | -279.4 | -4.545 |
| 6 | `[H][C@@]12C[C@H](C(=O)NCc3cccnc3)[C@@]([H])(CN(Cc3ccc(C)cc3)C1)O2` | -44.77 | 2.606 |
| 7 | `CCN(Cc1cccc(F)c1)c1ccc2nnnn2n1` | -5.866 | -3.241 |
| 8 | `Cc1ncc(CNC(=O)NCc2c(F)cccc2OC(F)F)s1` | -108.2 | -24.63 |
| 9 | `Cn1nnc(NCc2ccc(-c3ccc(Br)cc3)o2)n1` | -1.879 | 13.71 |
| 10 | `COC(=O)CCNC(=O)c1c[nH]cc1-c1cccc(OC)c1` | 3.852 | 1.674 |
| 11 | `N#CC(NC(=O)c1cccc2c1OCCO2)c1ccc(F)cc1F` (stereo not shown) | 0.9783 | -4.255 |
| 12 | `O=C(CCc1ccsc1)NCC1CCN(Cc2cccs2)CC1` | -9.695 | 1.391 |
| 13 | `CCn1nc(C)c(CNC(=O)c2nnc3ccc(OC)cc3n2)c1C` | -3.376 | -20.87 |
| 14 | `Cc1c(Cl)c(C(=O)N2CC(c3cccnc3)C2)nn1C` | 9.008 | 2.54 |
| 15 | `Cc1cc(NC(=O)c2ccc(N3CCOCC3)c(C)c2)[nH]n1` | -0.7185 | -5.398 |
| 16 | `O=C(CC1=CSC2=NCCN12)N1CCCC(CCc2cccc(F)c2)C1` (stereo not shown) | -60.13 | 34.23 |
| 17 | `N#Cc1ccc(CN2CCCCC2Cn2cncn2)c(F)c1` (stereo not shown) | -23.37 | 11.92 |
| 18 | `CC(C)c1nc(C2CCCN2Cc2ccccc2C#N)no1` (stereo not shown) | 13.4 | 1.165 |
| 19 | `Cc1noc(C)c1C1CCCN1C(=O)CN1C(=O)OC(C)(C)C1=O` (stereo not shown) | -12.8 | 10.75 |
| 20 | `O=C(c1ccnn1-c1ccc2ccccn12)N1CCCC1` | -61.24 | 4.946 |
| 21 | `CS(=O)(=O)N1CCCC1CS(=O)(=O)c1ccccc1` (stereo not shown) | -46.13 | 3.312 |
| 22 | `CCC(Nc1ncnc2sc(C(=O)O)c(C)c12)c1ccnn1C` (stereo not shown) | 4.234 | -0.7941 |
| 23 | `Fc1ccc(C2CN(c3ncnc4nc[nH]c34)CCO2)cc1` (stereo not shown) | -51.31 | 13.65 |
| 24 | `CC(C)N1CCN(C(=O)Nc2cnn(CC(N)=O)c2)CC1` | -14.88 | 2.632 |
| 25 | `CN(C)CCN1CCC2(CCN(C(=O)c3ccncc3)CC2)C1=O.O=C(O)C(F)(F)F.O=C(O)C(F)(F)F` | -21.17 | -33 |
| 26 | `CC(NCCN1CCN(C(=O)C2CCCC2)CC1)c1cnn(C)c1` (stereo not shown) | -12.98 | 2.891 |
| 27 | `COCc1nc2ncc3c(=O)n(-c4ccc(C(C)=O)cc4)ccc3n2n1` | -14.04 | 1.815 |
| 28 | `NC(=O)c1nc(CC(=O)Nc2cccc(C(F)(F)F)c2)no1` | 3.848 | 10.74 |
| 29 | `CC(C)c1nccc(CN2CCCC(O)(CN(C)C)CC2)n1` (stereo not shown) | 26.41 | -36.07 |
| 30 | `COCCn1nc(C(=O)N(C)Cc2cccnc2)ccc1=O` | -27.74 | -12.36 |
| 31 | `Cc1cc(C)c(C(=O)N2CCCC(O)(CN3CCCC3)C2)cc1C` (stereo not shown) | 21.9 | -0.918 |
| 32 | `CC(C(=O)N1CCc2sccc2C1)N1CCCN(C2CC2)CC1` (stereo not shown) | -17.47 | -9.074 |
| 33 | `O=C(NCc1ccc2c(c1)OCO2)N1CCCC2(C1)OCCO2` | -37.65 | 7.223 |
| 34 | `Cc1cc(C(C)NCCN2CCC(N(C)C)CC2)c(C)s1` (stereo not shown) | 12.2 | 0.9451 |
| 35 | `CC(NC(=O)NCC1(O)CCC1)c1ccc(OCC2CC2)c(F)c1` (stereo not shown) | 38.63 | -1.659 |
| 36 | `O=S(=O)(NCC1CCN(c2cnccn2)CC1)c1cccs1` | 15.06 | 27.7 |
| 37 | `Cc1cccc(NS(=O)(=O)c2cc(C(=O)O)oc2C)c1` | 3.964 | -16.73 |
| 38 | `COc1c(C2CCCN2Cc2noc(C)n2)c(C)nn1C` (stereo not shown) | -24.9 | 1.581 |
| 39 | `O=C(O)C(F)(F)F.[H][C@]12CCC[C@@H](CNc3ccccn3)[C@@]1([H])CN(c1ncccn1)C2` | -29.07 | 14.99 |
| 40 | `COc1ncccc1CNc1cc(N2CCCC2CO)ncn1` (stereo not shown) | 24.25 | 2.541 |
| 41 | `Cn1cnnc1C1CCCN(C(=O)NCc2ccccc2)C1` (stereo not shown) | -29.36 | 4.377 |
| 42 | `COc1ccc(Cl)cc1CNCCCn1ccnc1` | -23.03 | 6.824 |
| 43 | `CN(CCc1cn[nH]c1)Cc1nc(Cc2cccc(F)c2)no1` | -10.43 | 13.68 |
| 44 | `CC(C(=O)NCc1ccc(N2CCCCCC2)nc1)n1cncn1` (stereo not shown) | -2.685 | -4.378 |
| 45 | `CCN(Cc1ccccc1)C(=O)CN1CCCCC1Cn1cncn1` (stereo not shown) | -4.881 | 0.2185 |
| 46 | `O=C(c1cc2c([nH]c1=O)CCC2)N1CCCCCC1c1ccncc1` (stereo not shown) | 0.6098 | -8.487 |
| 47 | `Cc1ccccc1CN1CCC2(COCc3cnc(N(C)C)nc32)C1.O=C(O)C(F)(F)F` (stereo not shown) | 48.77 | 26.51 |
| 48 | `CC(C)(C)NC(=O)[C@@H]1Cc2ccccc2CN1Cc1cccs1` | -55.48 | 4.715 |
| 49 | `CN(C)Cc1cccc(C(=O)N2CCCC(n3cncn3)C2)c1` (stereo not shown) | -6.541 | -27.35 |
| 50 | `Cc1ccoc1C(=O)NC1CCN(C(=O)Nc2ccccn2)CC1` | - | 3.072 |
| 51 | `CNc1ncc(CN(C)Cc2cc3n(n2)CCNC3)cn1` | -16.18 | 25.1 |
| 52 | `CCCc1cc(N2CCCCC2Cn2cc(C)cn2)n2ncnc2n1` (stereo not shown) | -15.79 | -2.968 |
| 53 | `Cc1nc(C2CN(C)CCO2)cc(N2CCC(CO)CC2)n1` (stereo not shown) | 15.66 | 4.536 |
| 54 | `CCN(Cc1cc(F)c(OC)c(Cl)c1)Cc1nc(COC)no1` | -11.27 | 15.34 |
| 55 | `N#Cc1cc(F)ccc1NCC1CCS(=O)(=O)CC1` | -20.7 | 0.4369 |
| 56 | `COc1c(C2CCCN2C(=O)c2csc(C(C)C)n2)c(C)nn1C` (stereo not shown) | 8.482 | -2.223 |
| 57 | `Cc1ccc(CCCC(=O)N2CCCC(CS(N)(=O)=O)C2)s1` (stereo not shown) | 2.311 | 20.83 |
| 58 | `CC(=O)c1cccc(S(=O)(=O)NCC(C)(O)c2cccs2)c1` (stereo not shown) | -23.38 | -3.38 |
| 59 | `Cc1ccc(N2CCCC(c3[nH]ncc3-c3ccccc3)C2)nn1` (stereo not shown) | 38.47 | 1.977 |
| 60 | `CCS(=O)(=O)c1nccn1-c1cccc(F)c1` | -0.5064 | 14.02 |
| 61 | `CNC(=O)CS(=O)(=O)C1CCN(S(=O)(=O)c2cccc(C(C)=O)c2)CC1` | -15.72 | -20.95 |
| 62 | `Cc1cnn(CC2CCCN2C(=O)c2n[nH]c3ccccc23)c1` (stereo not shown) | 15.92 | -40.39 |
| 63 | `Cc1ccc(CNC(=O)NCc2ccco2)s1` | -38.96 | -17.92 |
| 64 | `O=S(=O)(CC1CCCN1S(=O)(=O)c1cccnc1)c1ccccc1` (stereo not shown) | -19.28 | 3.213 |
| 65 | `CCn1nnc2c1C(COCCN(C)C)CN(Cc1ccco1)C2.O=C(O)C(F)(F)F.O=C(O)C(F)(F)F` (stereo not shown) | -36.97 | 17.95 |
| 66 | `COC1CCN(c2ccc(F)cc2CN(C)CC(N)=O)CC1` | -56.27 | 21.52 |
| 67 | `O=S(=O)(CC1CC1)c1ncc(CN2CCOCC2)n1CC1CCCO1` (stereo not shown) | -4.111 | 10.08 |
| 68 | `COc1ccc2c(c1)OCC(Cc1cc(N3CCCC3)cnn1)C2` (stereo not shown) | 19.51 | -14.23 |
| 69 | `Fc1ccc(-c2cc(NCCC3CCOC3)n3nccc3n2)cc1` (stereo not shown) | 17.14 | 3.631 |
| 70 | `Cc1cccc(NC(=O)c2sc(C)nc2C)n1` | -18.44 | 1.464 |
| 71 | `CCNc1ccnc(NC2CCN(S(C)(=O)=O)CC2)n1` | -12.42 | -1.42 |
| 72 | `Cn1cccc1C(=O)N1CCC2(CCCN(CC3CC3)C2=O)C1` (stereo not shown) | -47.23 | 20.23 |
| 73 | `[H][C@@]12CN(Cc3ccoc3)C[C@]1([H])OCCN2CC(=O)N(C)C` | -89.83 | -2.64 |

The last 4 entries again:

- Cc1cccc(NC(=O)c2sc(C)nc2C)n1 | T. brucei: -18.44%; Toxoplasma: 1.464%
- CCNc1ccnc(NC2CCN(S(C)(=O)=O)CC2)n1 | T. brucei: -12.42%; Toxoplasma: -1.42%
- Cn1cccc1C(=O)N1CCC2(CCCN(CC3CC3)C2=O)C1 (stereo not shown) | T. brucei: -47.23%; Toxoplasma: 20.23%
- [H][C@@]12CN(Cc3ccoc3)C[C@]1([H])OCCN2CC(=O)N(C)C | T. brucei: -89.83%; Toxoplasma: -2.64%

Data taken from ChEMBL document CHEMBL3988442, “University of Dundee, Small-Polar-MMV Screening Library” (2021).